Reference: paper PMC7055314, “Ratiometric population sensing by a pump-probe signaling system in Bacillus subtilis” (Nature Communications, 2020)
Results are given in words; binding and its absence hold for the method and conditions named. Binding seen in cells or lysates may run through a third protein. Some results given as binding are weak or reduced against the parent protein; the word gives no strength. Tags and fused reporters may be left off the sequences shown.

Biological target: T1, CFP-RapA (Bacillus subtilis 168, UniProt Q00828 1-378)
T1 construct: RapA, Rap-family RRNPP-type receptor (response regulator aspartate phosphatase A) of Bacillus subtilis; rapA amplified from B. subtilis 168 genomic DNA; ecfp(Bs) is joined to the N-terminus of RapA by a GSGGV linker; also called RapA receptor; RapA-CFP; source: B. subtilis reporter strain BIB625 (ΔrapA-phrA Δspo0F), IPTG-induced from the amyE locus, in living cells; not shown: eCFP(Bs), …
T1 sequence (looked up): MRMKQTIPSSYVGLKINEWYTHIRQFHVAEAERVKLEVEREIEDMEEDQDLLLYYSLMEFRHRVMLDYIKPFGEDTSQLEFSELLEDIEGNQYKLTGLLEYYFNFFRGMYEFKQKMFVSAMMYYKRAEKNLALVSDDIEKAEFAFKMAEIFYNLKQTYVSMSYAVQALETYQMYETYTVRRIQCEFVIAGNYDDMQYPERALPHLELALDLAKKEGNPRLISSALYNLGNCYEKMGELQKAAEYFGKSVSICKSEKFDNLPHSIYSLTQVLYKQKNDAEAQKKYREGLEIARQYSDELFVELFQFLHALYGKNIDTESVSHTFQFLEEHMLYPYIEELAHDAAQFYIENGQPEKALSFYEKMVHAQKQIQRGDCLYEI
Assay: FRET or BRET; E-FRET imaging of single B. subtilis reporter cells, stimulated with PhrA

binding: binds
B1: Spo0F-YFP (protein, UniProt P06628 1-124)
chain: MMNEKILIVDDQYGIRILLNEVFNKEGYQTFQAANGLQALDIVTKERPDLVLLDMKIPGMDGIEILKRMKVIDENIRVIIMTAYGELDMIQESKELGALTHFAKPFDIDEIRDAVKKYLPLKSN
